Assay results taken from publication PMC8891368.

By UniProt entry, the sequences of proteins in these tests, tags left out.
UniProt Q16665: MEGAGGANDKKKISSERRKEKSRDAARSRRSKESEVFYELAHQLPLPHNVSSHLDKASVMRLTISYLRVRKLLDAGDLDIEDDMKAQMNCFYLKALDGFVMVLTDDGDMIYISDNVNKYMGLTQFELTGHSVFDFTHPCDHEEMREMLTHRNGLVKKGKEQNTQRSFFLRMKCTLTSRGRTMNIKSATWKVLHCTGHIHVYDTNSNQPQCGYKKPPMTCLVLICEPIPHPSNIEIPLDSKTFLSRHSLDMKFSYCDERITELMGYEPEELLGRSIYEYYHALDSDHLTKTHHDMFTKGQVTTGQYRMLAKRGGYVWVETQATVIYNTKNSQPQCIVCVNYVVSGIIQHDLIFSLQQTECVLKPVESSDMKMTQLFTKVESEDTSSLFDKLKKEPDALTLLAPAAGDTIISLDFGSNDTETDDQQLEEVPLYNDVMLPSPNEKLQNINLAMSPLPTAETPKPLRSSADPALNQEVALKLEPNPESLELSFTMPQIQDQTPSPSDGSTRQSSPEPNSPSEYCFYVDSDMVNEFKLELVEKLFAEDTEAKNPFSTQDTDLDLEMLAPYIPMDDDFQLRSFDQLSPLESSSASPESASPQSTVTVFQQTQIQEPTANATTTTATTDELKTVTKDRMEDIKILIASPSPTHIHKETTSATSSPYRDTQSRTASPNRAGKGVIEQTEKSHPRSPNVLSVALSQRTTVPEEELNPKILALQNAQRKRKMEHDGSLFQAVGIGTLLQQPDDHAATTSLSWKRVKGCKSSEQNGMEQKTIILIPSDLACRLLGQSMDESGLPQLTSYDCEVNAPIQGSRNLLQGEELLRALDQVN

Target: hypoxia-inducible factor 1α (HIF-1α) (human (endogenous in MCF-7 and MDA-MB-231)) (UniProt Q16665)
Experiment: affinity purification with mass spectrometry; MCF-7 cellular extracts precipitated with IgG or anti-HIF-1α antibody, SDS-PAGE, silver staining, bands analysed by mass spectrometry

binding: binds
B1: aldolase A (ALDOA) (protein, UniProt P04075 1-364)
chain: MPYQYPALTPEQKKELSDIAHRIVAPGKGILAADESTGSIAKRLQSIGTENTEENRRFYRQLLLTADDRVNPCIGGVILFHETLYQKADDGRPFPQVIKSKGGVVGIKVDKGVVPLAGTNGETTTQGLDGLSERCAQYKKDGADFAKWRCVLKIGEHTPSALAIMENANVLARYASICQQNGIVPIVEPEILPDGDHDLKRCQYVTEKVLAAVYKALSDHHIYLEGTLLKPNMVTPGHACTQKFSHEEIAMATVTALRRTVPPAVTGITFLSGGQSEEEASINLNAINKCPLLKPWALTFSYGRALQASALKAWGGKKENLKAAQEEYVKRALANSLACQGKYTPSGQAGAAASESLFVSNHAY

Results are given in words; binding and its absence hold for the method and conditions named. Binding seen in cells or lysates may run through a third protein. A yes stands for co-enrichment or nearness to the bait. Other partners may have been found.
